Measured values from PubChem BioAssay (NCATS).
Inconclusive results, whose numbers are uncertain, are shown with a selection of clear calls. A potency beside an inconclusive call is a rough fit, not a confirmed value. Calls of active or inactive are those of the source. The call rests on the fitted dose curve; in most records, active means well fitted cell-killing curve with a large enough effect; inconclusive means small, poorly fitted or top-dose-only effect, or effect the other way; inactive means no such curve, though single readings can be large or run the other way.

Experiment: Quantitative High-Throughput drug screen in 47 multiple myeloma cell lines against the NCATS MIPE library collection: Delta47_JCRB cell viability assay (AID 1918925; further: nearly all actives have a fitted effect of over 45% in size;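 on viability (% of DMSO): 0% = media-only wells and 100% = DMSO-only wells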)
Conditions: Delta47 myeloma viability, CellTiter-Glo ATP, 48 h; viability (% of DMSO): at 45.8 µM (top of the series)
How it was run: (§1)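 Inhibition of cell viability is measured here. Each line was plated at 500 cells per well, treated with MIPE 4.0 drugs, kept 48 hours at 37C, then assayed for ATP content by CellTiter-Glo luminescence.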
Potency means the concentration at half of the fitted maximal effect.

Compound	Potency	viability (% of DMSO)
CC(=O)N1CCN(c2ccc(OC[C@H]3CO[C@](Cn4ccnc4)(c4ccc(Cl)cc4Cl)O3)cc2)CC1	active: 18.7 µM	
Cc1cc2nc3c(=O)[nH]c(=O)nc-3n(CC(O)C(O)C(O)CO)c2cc1C (centres undefined)	inconclusive: 2.96 µM [cytotoxic, full curve, poor fit]	
CC(c1cc2ccccc2s1)N(O)C(N)=O (centres undefined)		inactive: 108%
COc1cc(-c2nn(C3CCC(N4CCN(C(C)=O)CC4)CC3)c3ncnc(N)c23)ccc1NC(=O)c1cc2ccccc2n1C (centres undefined)	inconclusive: 14.8 µM [cytotoxic, partial curve, poor fit]	
Clc1ccc(COC(Cn2ccnc2)c2ccc(Cl)cc2Cl)c(Cl)c1 (centres undefined)	inconclusive: 41.8 µM [cytotoxic, partial curve, poor fit]	
Cc1cn([C@H]2C[C@H](N=[N+]=[N-])[C@@H](CO)O2)c(=O)[nH]c1=O	inconclusive: 37.2 µM [cytotoxic, single point]	
CC(Oc1ccc(O)cc1)(P(=O)(O)O)P(=O)(O)O	inconclusive: 37.2 µM [cytotoxic, single point]	
Nc1nc(=O)n([C@H]2CSC(CO)O2)cc1F (some centres undefined)		inactive: 110%
CO[C@H]1/C=C\O[C@@]2(C)Oc3c(C)c(O)c4c(O)c(c(C=NN5CCN(C6CCCC6)CC5)c(O)c4c3C2=O)NC(=O)C(C)=CC=C[C@H](C)[C@H](O)[C@@H](C)[C@@H](O)[C@@H](C)[C@H](OC(C)=O)[C@H]1C	inconclusive: 0.0526 µM [cytotoxic, full curve]	
CCCCN(CCCC)CC(O)c1cc(Cl)cc2c1-c1ccc(Cl)cc1C2=Cc1ccc(Cl)cc1 (centres undefined)	inconclusive: 18.7 µM [cytotoxic, partial curve]	
CCCCC(=O)O[C@]1(C(=O)CO)[C@@H](C)C[C@H]2[C@@H]3CCC4=CC(=O)C=C[C@]4(C)[C@@]3(F)[C@@H](O)C[C@@]21C	inconclusive: 9.35 µM [cytotoxic, partial curve, poor fit]	
CCCCOCCOc1nc(-c2ccc(C(=O)O)c(F)c2)sc1C		inactive: 149%
O=C(C[C@@H]1CC=CCCC(=O)O[C@H](c2ccccc2)CNC1=O)NCc1ccc(Cl)cc1	active: 10.5 µM	

Some of these compounds in order of formula weight, smallest number first:
Compound	Potency	viability (% of DMSO)
Nc1nc(=O)n([C@H]2CSC(CO)O2)cc1F (some centres undefined)		inactive: 110%
CC(Oc1ccc(O)cc1)(P(=O)(O)O)P(=O)(O)O	inconclusive: 37.2 µM [cytotoxic, single point]	
Clc1ccc(COC(Cn2ccnc2)c2ccc(Cl)cc2Cl)c(Cl)c1 (centres undefined)	inconclusive: 41.8 µM [cytotoxic, partial curve, poor fit]	
CCCCC(=O)O[C@]1(C(=O)CO)[C@@H](C)C[C@H]2[C@@H]3CCC4=CC(=O)C=C[C@]4(C)[C@@]3(F)[C@@H](O)C[C@@]21C	inconclusive: 9.35 µM [cytotoxic, partial curve, poor fit]	
CCCCN(CCCC)CC(O)c1cc(Cl)cc2c1-c1ccc(Cl)cc1C2=Cc1ccc(Cl)cc1 (centres undefined)	inconclusive: 18.7 µM [cytotoxic, partial curve]	
COc1cc(-c2nn(C3CCC(N4CCN(C(C)=O)CC4)CC3)c3ncnc(N)c23)ccc1NC(=O)c1cc2ccccc2n1C (centres undefined)	inconclusive: 14.8 µM [cytotoxic, partial curve, poor fit]	

Experiment: Quantitative High-Throughput drug screen in 47 multiple myeloma cell lines against the NCATS MIPE library collection: AMO1_DSMZ cell viability assay (AID 1918927; further: nearly all actives have a fitted effect of over 30% in size;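 on viability, % of DMSO: 100% = DMSO only wells and 0% = cell-free media only wells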)
Conditions: AMO1 myeloma cells viability, CellTiter-Glo ATP luminescence, 48 h; viability, % of DMSO: at 45.8 µM (top of the series)
How it was run: as §1

Compound	viability, % of DMSO	Potency
Nc1ccn(C2CO[C@H](CO)O2)c(=O)n1 (some centres undefined)	inactive: 113%	
CC(=O)NCCC(=O)N[C@@H](CCC(N)=O)C(=O)N[C@@H](CO)C(=O)N[C@@H](CCC(N)=O)C(=O)N[C@@H](CCC(N)=O)C(=O)N[C@H](C(=O)N[C@@H](Cc1ccccc1)C(=O)N[C@]1(C)CCCCCCC=CCCC[C@@](C)(C(=O)N[C@@H](CCC(N)=O)C(=O)N[C@@H](CC(N)=O)C(N)=O)NC(=O)[C@H](CC(C)C)NC(=O)[C@H](CC(C)C)NC(=O)[C@@H](CCCNC(=N)N)NC(=O)[C@H](Cc2c[nH]c3ccccc23)NC(=O)[C@H](CC(C)C)NC(=O)[C@H](CC(N)=O)NC1=O)[C@H](C)O		inconclusive: 4.69 µM [cytotoxic, partial curve, poor fit]
COC(=O)N[C@H](C(=O)N[C@@H](Cc1ccccc1)[C@@H](O)CN(Cc1ccc(-c2ccccn2)cc1)NC(=O)[C@@H](NC(=O)OC)C(C)(C)C)C(C)(C)C		inconclusive: 0.003 µM [cytotoxic, full curve, poor fit]
C=C1C(=CC=C2CCCC3(C)[C@@H]([C@H](C)C=CC=CC(O)(CC)CC)CC[C@@H]23)C[C@@H](O)C[C@@H]1O (some centres undefined)		active: 14.8 µM
COc1c2occc2cc2ccc(=O)oc12	inactive: 120%	
NS(=O)(=O)c1cc2c(cc1Cl)NC(C(Cl)Cl)NS2(=O)=O (centres undefined)	inactive: 108%	
N=C(N)c1ccc2cc(OC(=O)c3ccc(N=C(N)N)cc3)ccc2c1	inactive: 80.7%	
CCC[C@H]1C[C@H](C(=O)N[C@@H]([C@@H]2O[C@@H](SC)[C@@H](O)[C@@H](O)[C@@H]2O)[C@H](C)Cl)N(C)C1	inactive: 109%	
CC(=O)SC[C@@H](C)C(=O)N1CCC[C@H]1C(=O)N[C@@H](Cc1ccccc1)C(=O)O	inactive: 122%	
Cc1cc2nc3c(=O)[nH]c(=O)nc-3n(CC(O)C(O)C(O)CO)c2cc1C (centres undefined)		inconclusive: 0.0235 µM [cytotoxic, full curve, poor fit]
Clc1ccc(COC(Cn2ccnc2)c2ccc(Cl)cc2Cl)c(Cl)c1 (centres undefined)		active: 23.5 µM
Cc1cn([C@H]2C[C@H](N=[N+]=[N-])[C@@H](CO)O2)c(=O)[nH]c1=O	inactive: 110%	
CC(Oc1ccc(O)cc1)(P(=O)(O)O)P(=O)(O)O		inconclusive: 0.0026 µM [cytotoxic, full curve, poor fit]
Nc1nc(=O)n([C@H]2CSC(CO)O2)cc1F (some centres undefined)	inactive: 109%	
CO[C@H]1/C=C\O[C@@]2(C)Oc3c(C)c(O)c4c(O)c(c(C=NN5CCN(C6CCCC6)CC5)c(O)c4c3C2=O)NC(=O)C(C)=CC=C[C@H](C)[C@H](O)[C@@H](C)[C@@H](O)[C@@H](C)[C@H](OC(C)=O)[C@H]1C		inconclusive: 0.372 µM [cytotoxic, full curve]
O=C(C[C@@H]1CC=CCCC(=O)O[C@H](c2ccccc2)CNC1=O)NCc1ccc(Cl)cc1		inconclusive: 8.33 µM [cytotoxic, partial curve, poor fit]
